# According to PMC13390622:
# Protein sequences, listed by entry. Tags and fused reporters are not part of them. Lines headed by an entry give the natural chain unless they say otherwise; changes in a name come on top. Chains listed by the source or under a name are the forms on record and can include a tag or linker. Residues count along the entry.
# UniProt B2RWN4: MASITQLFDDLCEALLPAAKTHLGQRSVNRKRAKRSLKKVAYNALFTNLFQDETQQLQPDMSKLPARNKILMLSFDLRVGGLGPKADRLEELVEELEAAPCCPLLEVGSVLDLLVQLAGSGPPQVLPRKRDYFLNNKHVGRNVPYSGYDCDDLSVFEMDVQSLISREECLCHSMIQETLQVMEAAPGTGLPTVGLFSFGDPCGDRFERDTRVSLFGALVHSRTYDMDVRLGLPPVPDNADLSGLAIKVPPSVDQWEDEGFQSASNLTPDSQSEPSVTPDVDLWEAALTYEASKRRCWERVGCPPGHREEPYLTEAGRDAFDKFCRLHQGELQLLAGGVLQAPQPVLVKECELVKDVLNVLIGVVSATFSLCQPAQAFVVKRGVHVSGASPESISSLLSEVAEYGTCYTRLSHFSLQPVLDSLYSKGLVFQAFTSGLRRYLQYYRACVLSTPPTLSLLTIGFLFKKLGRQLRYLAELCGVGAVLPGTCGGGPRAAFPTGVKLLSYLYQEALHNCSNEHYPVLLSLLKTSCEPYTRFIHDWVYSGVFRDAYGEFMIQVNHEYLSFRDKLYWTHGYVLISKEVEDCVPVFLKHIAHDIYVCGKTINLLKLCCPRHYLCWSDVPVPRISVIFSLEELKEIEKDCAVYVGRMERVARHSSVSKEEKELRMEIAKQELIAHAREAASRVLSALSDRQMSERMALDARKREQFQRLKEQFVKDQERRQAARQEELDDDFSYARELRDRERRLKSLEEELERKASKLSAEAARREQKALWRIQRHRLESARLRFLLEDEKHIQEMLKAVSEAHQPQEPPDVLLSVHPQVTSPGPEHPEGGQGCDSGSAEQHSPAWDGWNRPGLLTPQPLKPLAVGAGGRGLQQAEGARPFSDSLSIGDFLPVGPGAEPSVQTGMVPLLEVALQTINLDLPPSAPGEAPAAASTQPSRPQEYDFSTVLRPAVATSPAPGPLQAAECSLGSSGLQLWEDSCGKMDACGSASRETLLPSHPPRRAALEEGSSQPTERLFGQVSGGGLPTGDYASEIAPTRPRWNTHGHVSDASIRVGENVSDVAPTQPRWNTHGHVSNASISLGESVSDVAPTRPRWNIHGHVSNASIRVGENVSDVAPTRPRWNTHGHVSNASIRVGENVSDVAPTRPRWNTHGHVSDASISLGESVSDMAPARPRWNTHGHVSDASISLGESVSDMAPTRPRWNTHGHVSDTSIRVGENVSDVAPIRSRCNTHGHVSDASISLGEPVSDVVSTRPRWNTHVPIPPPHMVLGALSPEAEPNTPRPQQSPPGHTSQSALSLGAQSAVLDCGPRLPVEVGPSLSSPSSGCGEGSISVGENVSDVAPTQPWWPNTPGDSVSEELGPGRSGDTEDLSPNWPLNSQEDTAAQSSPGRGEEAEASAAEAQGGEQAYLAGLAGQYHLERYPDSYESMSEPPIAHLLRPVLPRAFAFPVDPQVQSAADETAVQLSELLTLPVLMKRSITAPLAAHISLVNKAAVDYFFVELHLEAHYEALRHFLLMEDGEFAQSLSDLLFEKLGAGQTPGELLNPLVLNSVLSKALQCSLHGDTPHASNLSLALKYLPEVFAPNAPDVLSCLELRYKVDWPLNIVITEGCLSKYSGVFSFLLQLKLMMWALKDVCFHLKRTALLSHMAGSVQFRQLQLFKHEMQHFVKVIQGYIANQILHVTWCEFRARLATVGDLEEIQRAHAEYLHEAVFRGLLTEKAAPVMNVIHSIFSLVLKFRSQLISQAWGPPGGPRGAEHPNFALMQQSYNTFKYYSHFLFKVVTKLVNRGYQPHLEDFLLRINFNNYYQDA
# GCP6mut-SBP-Myc (deletion of GCP6 residues 329–341) (B2RWN4, form named): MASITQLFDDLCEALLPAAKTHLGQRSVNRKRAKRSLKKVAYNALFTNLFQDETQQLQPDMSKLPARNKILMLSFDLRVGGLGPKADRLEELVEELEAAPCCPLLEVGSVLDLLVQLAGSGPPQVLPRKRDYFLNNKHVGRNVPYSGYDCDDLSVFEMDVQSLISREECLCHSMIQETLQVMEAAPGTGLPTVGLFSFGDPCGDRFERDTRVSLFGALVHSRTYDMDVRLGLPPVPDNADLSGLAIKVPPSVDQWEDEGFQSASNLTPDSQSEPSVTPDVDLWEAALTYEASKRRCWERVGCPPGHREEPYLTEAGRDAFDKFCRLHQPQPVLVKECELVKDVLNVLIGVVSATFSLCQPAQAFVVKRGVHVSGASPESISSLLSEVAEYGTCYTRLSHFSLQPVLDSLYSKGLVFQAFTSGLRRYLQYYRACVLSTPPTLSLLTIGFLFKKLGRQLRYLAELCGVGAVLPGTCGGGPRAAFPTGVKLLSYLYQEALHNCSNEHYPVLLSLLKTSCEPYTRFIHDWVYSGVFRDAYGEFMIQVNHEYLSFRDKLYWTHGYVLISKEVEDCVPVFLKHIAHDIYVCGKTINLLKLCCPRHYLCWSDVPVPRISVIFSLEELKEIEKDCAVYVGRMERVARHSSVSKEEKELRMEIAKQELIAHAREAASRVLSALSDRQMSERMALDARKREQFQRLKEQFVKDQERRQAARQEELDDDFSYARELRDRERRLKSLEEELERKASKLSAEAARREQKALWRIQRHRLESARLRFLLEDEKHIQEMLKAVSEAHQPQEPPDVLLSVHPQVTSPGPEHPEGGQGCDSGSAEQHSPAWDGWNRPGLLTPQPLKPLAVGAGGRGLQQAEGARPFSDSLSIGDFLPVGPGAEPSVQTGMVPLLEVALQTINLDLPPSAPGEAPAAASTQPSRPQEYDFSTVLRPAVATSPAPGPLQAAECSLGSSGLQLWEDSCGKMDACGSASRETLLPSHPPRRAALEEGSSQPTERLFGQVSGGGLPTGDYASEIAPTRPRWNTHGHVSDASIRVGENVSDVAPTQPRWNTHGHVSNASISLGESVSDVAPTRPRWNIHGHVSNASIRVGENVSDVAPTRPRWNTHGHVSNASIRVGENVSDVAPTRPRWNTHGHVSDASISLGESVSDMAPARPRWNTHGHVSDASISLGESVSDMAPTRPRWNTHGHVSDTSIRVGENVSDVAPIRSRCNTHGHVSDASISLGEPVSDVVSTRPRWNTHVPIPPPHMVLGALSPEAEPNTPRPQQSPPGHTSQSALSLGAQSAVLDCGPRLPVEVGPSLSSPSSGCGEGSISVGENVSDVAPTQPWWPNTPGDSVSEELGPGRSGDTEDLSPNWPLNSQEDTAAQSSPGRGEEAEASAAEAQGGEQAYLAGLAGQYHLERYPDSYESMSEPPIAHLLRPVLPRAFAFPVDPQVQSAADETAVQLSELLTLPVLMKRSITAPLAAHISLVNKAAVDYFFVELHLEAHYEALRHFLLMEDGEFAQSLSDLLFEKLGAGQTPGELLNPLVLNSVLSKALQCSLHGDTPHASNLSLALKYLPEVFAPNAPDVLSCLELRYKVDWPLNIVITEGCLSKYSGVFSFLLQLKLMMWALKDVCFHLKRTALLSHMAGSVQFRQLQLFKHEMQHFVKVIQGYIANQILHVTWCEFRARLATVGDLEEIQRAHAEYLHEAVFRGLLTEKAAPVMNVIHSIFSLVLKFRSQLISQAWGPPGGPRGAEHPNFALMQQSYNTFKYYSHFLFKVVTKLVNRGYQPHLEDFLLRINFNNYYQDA
# UniProt Q96RT8: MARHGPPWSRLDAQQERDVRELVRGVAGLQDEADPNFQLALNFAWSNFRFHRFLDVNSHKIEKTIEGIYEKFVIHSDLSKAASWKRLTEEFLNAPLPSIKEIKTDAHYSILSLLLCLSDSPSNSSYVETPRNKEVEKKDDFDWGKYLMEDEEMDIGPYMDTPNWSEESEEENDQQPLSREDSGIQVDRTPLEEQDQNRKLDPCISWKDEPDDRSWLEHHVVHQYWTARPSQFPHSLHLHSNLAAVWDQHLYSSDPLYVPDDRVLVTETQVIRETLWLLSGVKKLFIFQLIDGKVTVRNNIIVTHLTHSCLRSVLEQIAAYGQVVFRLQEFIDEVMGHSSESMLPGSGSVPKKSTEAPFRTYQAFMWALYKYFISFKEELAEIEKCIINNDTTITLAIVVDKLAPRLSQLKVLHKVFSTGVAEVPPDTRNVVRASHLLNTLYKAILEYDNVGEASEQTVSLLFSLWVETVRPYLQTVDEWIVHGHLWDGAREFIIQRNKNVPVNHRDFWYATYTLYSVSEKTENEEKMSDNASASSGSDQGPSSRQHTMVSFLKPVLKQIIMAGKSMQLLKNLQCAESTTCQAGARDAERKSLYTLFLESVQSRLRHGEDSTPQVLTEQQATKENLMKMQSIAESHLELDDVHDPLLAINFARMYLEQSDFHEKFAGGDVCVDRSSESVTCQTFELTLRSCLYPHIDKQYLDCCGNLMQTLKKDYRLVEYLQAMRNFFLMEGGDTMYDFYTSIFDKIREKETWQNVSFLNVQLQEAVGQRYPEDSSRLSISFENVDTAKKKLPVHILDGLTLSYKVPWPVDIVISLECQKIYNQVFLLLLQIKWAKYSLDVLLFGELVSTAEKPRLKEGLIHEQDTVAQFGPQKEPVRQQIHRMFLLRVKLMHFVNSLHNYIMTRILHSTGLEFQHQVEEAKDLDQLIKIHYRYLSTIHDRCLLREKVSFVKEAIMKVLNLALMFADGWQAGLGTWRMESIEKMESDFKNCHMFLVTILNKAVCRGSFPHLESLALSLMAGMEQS
# UniProt Q8NHV4: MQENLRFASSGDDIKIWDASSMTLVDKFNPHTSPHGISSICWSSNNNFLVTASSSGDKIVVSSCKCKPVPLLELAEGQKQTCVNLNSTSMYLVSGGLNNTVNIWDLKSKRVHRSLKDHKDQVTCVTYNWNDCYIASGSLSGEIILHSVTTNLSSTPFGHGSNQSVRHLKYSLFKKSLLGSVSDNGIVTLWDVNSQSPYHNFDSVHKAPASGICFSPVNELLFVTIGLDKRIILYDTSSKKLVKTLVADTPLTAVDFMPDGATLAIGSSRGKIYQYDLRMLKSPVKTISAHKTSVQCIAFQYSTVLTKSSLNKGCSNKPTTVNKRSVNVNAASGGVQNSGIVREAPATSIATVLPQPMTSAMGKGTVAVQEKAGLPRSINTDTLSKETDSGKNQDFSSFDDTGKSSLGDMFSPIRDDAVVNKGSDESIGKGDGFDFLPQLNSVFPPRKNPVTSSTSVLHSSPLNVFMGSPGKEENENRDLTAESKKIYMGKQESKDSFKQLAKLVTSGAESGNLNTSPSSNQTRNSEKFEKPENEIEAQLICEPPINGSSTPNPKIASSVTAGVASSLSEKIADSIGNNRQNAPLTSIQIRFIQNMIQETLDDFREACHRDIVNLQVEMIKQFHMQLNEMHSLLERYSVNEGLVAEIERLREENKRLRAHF
# UniProt P23258: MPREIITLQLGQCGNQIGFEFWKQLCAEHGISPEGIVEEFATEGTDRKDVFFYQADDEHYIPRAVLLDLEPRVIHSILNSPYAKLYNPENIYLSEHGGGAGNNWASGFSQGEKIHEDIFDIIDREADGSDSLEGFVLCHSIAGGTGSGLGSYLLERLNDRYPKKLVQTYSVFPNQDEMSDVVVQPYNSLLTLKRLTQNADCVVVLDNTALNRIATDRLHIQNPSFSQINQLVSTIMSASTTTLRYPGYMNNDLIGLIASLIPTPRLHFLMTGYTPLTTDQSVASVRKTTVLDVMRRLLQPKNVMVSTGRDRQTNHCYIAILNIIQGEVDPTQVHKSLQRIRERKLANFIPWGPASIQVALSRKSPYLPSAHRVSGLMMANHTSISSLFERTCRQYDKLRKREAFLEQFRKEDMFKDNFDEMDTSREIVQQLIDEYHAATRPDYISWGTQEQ
# No constants are given. Whether binding was seen depends on the method and setting. In cells and extracts the contact can be indirect. Some entries that bind do so weakly or less than the wild type.
# Tests used:
# [1] = molecular target: GCP6-SBP-Myc (human) (UniProt B2RWN4); assay: pull-down; SBP pulldowns of GCP-SBP-Myc constructs from HEK293T cells, western blot of inputs and bound fractions; untransfected cells as negative control
# [2] = molecular target: GCP5mut-SBP-Myc (GCP5 R213A/R228G/L256E/V258E) (human) (UniProt Q96RT8); assay: as above
# [3] = molecular target: GCP6mut-SBP-Myc (deletion of GCP6 residues 329–341) (human) (UniProt B2RWN4); assay: as above
# [4] = molecular target: GCP5-SBP-Myc (human) (UniProt Q96RT8); assay: as above
# [5] = molecular target: NEDD1, overexpressed in HEK293T cells (human) (UniProt Q8NHV4); assay: pull-down; overexpressed NEDD1 (wild type or alanine mutants) pulled down from HEK293T cells, γ-tubulin detected
binding [1],binding [2],binding [3],binding [4],binding [5],Substance
binds,binds,binds,binds,–,NEDD1 detected in SBP pulldowns from HEK293T cells (from UniProt Q8NHV4 1-660)
–,–,–,–,binds,γ-tubulin from HEK293T cells (from UniProt P23258 1-451)
